From US8609694B2, “Use of pyridin-2-yl-methylamine derivatives for the production of a medicament for the treatment of chronic pain symptoms of neuropathological or psychogenic origin” (Pierre Fabre Medicament, priority 2003, dated 2013)
Some entries share one result that the patent states for a list of compounds. For at least one compound, name, drawing or mass did not settle the structure.

System: hypersensitivity (allodynia) after unilateral ligature of the infraorbital nerve (peripheral neuropathy)
Assay: peripheral neuropathy test in the rat (unilateral ligature of the infraorbital nerve, von Frey hair response score 0-4)
Assay type: in vivo
Details: after 14-day pump treatment
Method: The peripheral neuropathy test used was conducted in the rat according to a method analogous to that described by Vos in J. Neurosci. 1994, 14, 2708-2723. The product to be tested is delivered at a constant rate (0.12 ml/day) by means of an osmotic pump (Alzet, model 2ML2) for 14 days. The pumps are implanted 24 hours before lesion (unilateral ligature of the infraorbital nerve) and then explanted at the treatment's end. The pumps are implanted subcutaneously via a transverse incision made in the dorsal skin of the rat. […] Intensity of perceived pain is evaluated from the following criteria: 0, no response by the animal; 1, detection (i.e., the rat turns its head towards the object used for stimulation); 2, withdrawal (i.e., the rat turns away or makes a withdrawal movement with its head to avoid the object used for stimulation); 3, flight or attack (i.e., the rat avoids the object by moving its body or deliberately attacks the object used for stimulation); 4, face rubbing (i.e., the rat rubs the area of stimulation three times in succession). […]
The effects obtained with compounds (Ia), (Ib), and the products chosen as references are represented in FIGS. 4 to 8 in the appendix. FIGS. 4 to 7 represent the analgesic effects of the various products evaluated at days 4, 6, 8, 11, and 13 of treatment and 1 day following explantation of the pump (day 15). […]

SMILES | persistence of stable analgesic effect following the treatment's end
CNc1nc(CNCC2(F)CCN(C(=O)c3ccc(F)c(Cl)c3)CC2)ccc1C [Compound (Ib)] | at least 6 days
Cc1ccc(CNCC2(F)CCN(C(=O)c3ccc(F)c(Cl)c3)CC2)nc1 [Compound (Ia)] | at least 6 days
